# According to patent publication US8728787B2, “Fungal laccases and uses thereof” (Academia Sinica, priority 2010, dated 2014):
# The name of at least one read-out is uncertain.
# B1: Lcc3: laccase purified from Cerrena sp. WR1, GenBank accession no. GQ899203; SEQ ID NO:3 mature, 9 precursor (protein)
# chain: AIGPVADLHITDANVSPDGFTRPAVLAGGTFPGPLITGKQGDNFQINVIDELTDATMLKSTSIHWHGIFQKGTNWADGPSFVNQCPITTGNSFLYDFSVPDQTGTYWYHSHLSTQYCDGLRGALVIYDDNDPHKDLYDVDDETTVITLADWYHTQARLITGVPVSDATLINGLGRYLNGPTDAPLAVITVDQGKRYRFRLVSISCDPNFVFSIDNHSMTVIEVDAVNSQPLVVDSIQIFAAQRYSFILNANQSVGNYWIRANPNLGNTGFTNGINSAILRYNGAPVAEPNTTQTASTNPLNEVNLHPLVPTPVPGTPQPGGVDVVQNLVLGFSGGKFTINGVAFSPPTVPVLLQILSGTTTAQDLLPTGSIIELPLGKTVELTLAAGVLGGPHPFHLHGHTFHVVRSAGQTTPNYVDPILRDTVNTGAAGDNVTIRFTTDNPGPWFLHCHIDWHLEAGFAVVFAEGLNQTNAANPTPDAWNNLCDLYNALPAGDQ
# modifications: Cerrena sp
# Legend:
# Type in all cases: biochemical
# [1] = Guaiacol oxidation (laccase kinetics, optimum temperature and pH); conditions: guaiacol as substrate
# Method: (§1) The effect of temperature on laccase activity was studied using the standard enzymatic activity assay described above under various reaction temperatures (i.e., 20-80° C.). For thermal stability study, the enzyme was pre-incubated in a 50 mM citric acid buffer (pH 3.0) at 50-80° C. for 0-180 min and the residual enzymatic activity was then determined.
# (§2) The effect of pH on the laccase activity was investigated at a pH range of 2.5-6.0. Four buffer systems were used in this study: 50 mM glycine-HCl buffer (pH 2.5), 50 mM citric acid buffer (pH 3.0-5.5), 50 mM sodium phosphate buffer (pH 6.0-8.0), and 50 mM glycine-NaOH buffer (pH 9.0-10). To determine the protein stability of laccase at a wide range of pH conditions, the enzyme (0.1 mg/mL in each reaction) was pre-incubated at pH 3.0-10 at 25° C. for 0-5 days and then the residual enzyme activity was determined.
# (§3) Kinetic parameters Km and Vmax were determined as follows. […] The oxidation reactions of guaiacol and 2,6-DMP were monitored by determining OD436 values (ε=6,400 M^−1cm^−1) and OD468 values (ε=49,600 M^−1 cm^−1), respectively. The kinetic parameters were determined by nonlinear regression analysis (ENZFITTER software program, Elsevier-Biosoft, Cambridge, UK) using the Michaelis-Menten model. […]
# (§4) Kinetic parameters were determined following conventional methods. […]
# [2] = 2,6-DMP oxidation (laccase kinetics, optimum temperature and pH); conditions: 2,6-DMP as substrate
# Method: as §1, §2, §3, §4
# [3] = ABTS oxidation assay (laccase activity, kinetics, effect of temperature and pH); conditions: ABTS as substrate
# Method: All chemicals used in this study were obtained from Merck (Darmstadt, Germany) or Sigma-Aldrich (St. Louis, Mo. USA). All spectrophotometric measurements were performed using the Beckman DU 640 spectrophotometer (Beckman Coulter, USA).
# as §1
# The effect of pH on the laccase activity was investigated at a pH range of 2.5-6.0. […] To determine the protein stability of laccase at a wide range of pH conditions, the enzyme (0.1 mg/mL in each reaction) was pre-incubated at pH 3.0-10 at 25° C. for 0-5 days and then the residual enzyme activity was determined.
# as §3, §4
molecule,measurement,setting,value
B1,kcat/Km,[1],0.21 s^−1μM^−1
same,kcat/Km,[2],0.28 s^−1μM^−1
same,kcat/Km,[3],285.8 s^−1μM^−1
